Numbering of substitutions follows the chain as printed. These are yes or no findings as the source states them, for the method shown. Some results given as binding are weak or reduced against the parent protein; the word gives no strength.
B1: mouse anti-CD40 monoclonal antibody C1H1 (antibody, V domains shown)
VH: EVKLVESGGGLVKPGASLKLSCAASGFTFSNYGISWVRQTSDKRLEWVASISSGGDNTYYPDNVKGRFTISRENAKNTLYLQMSSLKSEDTALYYCARAGEKAMDYWGQGTSVTVSS
VL: DIVLTQSPVTLSVTPGDSVSLSCRASQTINNNLHWYQQKSHESPRLLIKYASQSISGIPSRFSGSGSGTDFTLSINSVETEDFGIYFCQQFSSWPLTFGAGTKLELK
B2: chimeric C1H1 antibody (antibody, human IgG1, kappa, V domains shown)
VH: B1 VH
VL: DIVLTQSPVTLSVTPGDSVSLSCRASQTINNNLHWYQQKSHESPRLLIKYASQSISGIPSRFSGSGSGTDFTLSINSVETEDFGIYFCQQFSSWPLTFGAGTKLELKR
B3: humanized antibody huC1H1-V1 (antibody, human IgG2, kappa, V domains shown)
VH: EVQLVESGGGLVKPGGSLRLSCAASGFTFSNYGISWVRQAPGKGLEWVASISSGGDNTYYPDNVKGRFTISRDNAKNSLYLQMNSLRAEDTAVYYCARAGEKAMDYWGQGTLVTVSS
VL: EIVLTQSPATLSLSPGERATLSCRASQTINNNLHWYQQKPGQAPRLLIKYASQSISGIPARFSGSGSGTDFTLTISSLEPEDFAVYFCQQFSSWPLTFGGGTKVEIKR
B4: humanized antibody huC1H1-V2 (antibody, human IgG2, kappa, V domains shown)
VH: B3 VH with A49S
VL: B3 VL

Amino acid sequences for entries named in this document (tags omitted). A change or cut given only in a name is not applied to a line headed by its entry. Chains listed by the source or under a name are the forms on record and can include a tag or linker.
cynomolgus monkey CD40-his protein (Acro biosystems, Cat #CD0-C52H6) (G7PG38, form named): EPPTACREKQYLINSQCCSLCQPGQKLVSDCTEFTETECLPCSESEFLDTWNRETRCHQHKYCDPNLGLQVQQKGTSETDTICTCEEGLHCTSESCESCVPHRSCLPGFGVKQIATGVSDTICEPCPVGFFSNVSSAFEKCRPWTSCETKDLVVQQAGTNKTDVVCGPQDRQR

Molecular target: cynomolgus monkey CD40-his protein (Acro biosystems, Cat #CD0-C52H6) (cynomolgus monkey) (UniProt G7PG38)
Assay: SPR Biacore

Binder | binding
B1 | binds
B2 | binds
B3 | binds
B4 | binds
